Results published in article PMC11962092.
No constants are given. Whether binding was seen depends on the method and setting. Binding seen in cells or lysates may run through a third protein. Here binding means that the protein was enriched with, or labelled near, the bait; the list need not be complete.

The chains behind the UniProt entries cited, without tags or fusion partners. Residues count along the entry.
UniProt Q9JJR8, residues 35-199: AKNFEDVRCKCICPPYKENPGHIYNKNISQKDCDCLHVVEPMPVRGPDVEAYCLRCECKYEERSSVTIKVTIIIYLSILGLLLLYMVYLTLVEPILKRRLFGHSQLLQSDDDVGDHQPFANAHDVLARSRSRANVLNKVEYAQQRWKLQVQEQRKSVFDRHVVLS

B1: ClC-3 (protein, UniProt P51791 1-818)
chain: MESEQLFHRGYYRNSYNSITSASSDEELLDGAGAIMDFQTSEDDNLLDGDTAAGTHYTMTNGGSINSSTHLLDLLDEPIPGVGTYDDFHTIDWVREKCKDRERHRRINSKKKESAWEMTKSLYDAWSGWLVVTLTGLASGALAGLIDIAADWMTDLKEGICLSALWYNHEQCCWGSNETTFEERDKCPQWKTWAELIIGQAEGPGSYIMNYIMYIFWALSFAFLAVSLVKVFAPYACGSGIPEIKTILSGFIIRGYLGKWTLMIKTITLVLAVASGLSLGKEGPLVHVACCCGNIFSYLFPKYSTNEAKKREVLSAASAAGVSVAFGAPIGGVLFSLEEVSYYFPLKTLWRSFFAALVAAFVLRSINPFGNSRLVLFYVEYHTPWYLFELFPFILLGVFGGLWGAFFIRANIAWCRRRKSTKFGKYPVLEVIIVAAITAVIAFPNPYTRLNTSELIKELFTDCGPLESSSLCDYRNDMNASKIVDDIPDRPAGVGVYSAIWQLCLALIFKIIMTVFTFGIKVPSGLFIPSMAIGAIAGRIVGIAVEQLAYYHHDWFIFKEWCEVGADCITPGLYAMVGAAACLGGVTRMTVSLVVIVFELTGGLEYIVPLMAAVMTSKWVGDAFGREGIYEAHIRLNGYPFLDAKEEFTHTTLAADVMRPRRSDPPLAVLTQDNMTVDDIENMINETSYNGFPVIMSKESQRLVGFALRRDLTIAIESARKKQEGIVGSSRVCFAQHTPSLPAESPRPLKLRSILDMSPFTVTDHTPMEIVVDIFRKLGLRQCLVTHNGIVLGIITKKDILRHMAQTANQDPASIMFN
B2: ClC-4 (protein, UniProt Q61418 1-747)
chain: MDFLEEPFPDVGTYEDFHTIDWLREKSRDTDRHRKITSKSKESIWEFIKSLLDAWSGWVVMLLIGLLAGTLAGVIDLAVDWMTDLKEGVCLSAFWYSHEQCCWTSNETTFEDRDKCPLWQKWSELLLSQSEGASAYILNYLMYILWALLFAFLAVSLVRVFAPYACGSGIPEIKTILSGFIIRGYLGKWTLLIKTVTLVLVVSSGLSLGKEGPLVHVACCCGNFFSSLFSKYSKNEGKRREVLSAAAAAGVSVAFGAPIGGVLFSLEEVSYYFPLKTLWRSFFAALVAAFTLRSINPFGNSRLVLFYVEYHTPWYMAELFPFILLGVFGGLWGTLFTRCNIAWCRRRKTTRLGRYPVLEVIAVTAVTAIVAYPNPYTRQSTSELISELFNDCGALESSQLCDYINDPNMTRPVDDIPDRPAGVGVYTAMWQLALALIFKIVITIFTFGMKIPSGLFIPSMAVGAMAGRMVGIGVEQLAYHHHDWIIFRNWCRPGADCVTPGLYAMVGAAACLGGVTRMTVSLVVIMFELTGGLEYIVPLMAAAVTSKWVADAFGKEGIYEAHIHLNGYPFLDVKDEFTHRTLATDVMRPRRGEPPLSVLTQDSMTVEDVETLIKETDYNGFPVLVSRDSERLIGFAQRRELILAIKNARQRQEGIVSNSIMYFTEEPPELPANSPHPLKLRRILNLSPFTVTDHTPMETVVDIFRKLGLRQCLVTRSGRLLGIITKKDVLRHMAQMANQDPESIMFN
B3: ClC-5 (protein, UniProt Q9WVD4 1-816)
chain: MAMWQGAMDNRGFHQGSFSSFQSSSSDEDLMDIPGTAMDFSMRDDVPPLDREIEGNKSYNGGGIGSSNRVMDFLEEPIPGVGTYDDFNTIDWVREKSRDRDRHREITNKSKESTWALIHSVSDAFSGWLLMLLIGLLSGSLAGLIDISAHWMTDLKEGICTGGFWFNHEHCCWNSEHVTFEHRDKCPEWNSWAQLIINTDQGAFAYIVNYFMYVLWALLFAFLAVSLVKAFAPYACGSGIPEIKTILSGFIIRGYLGKWTLVIKTITLVLAVSSGLSLGKEGPLVHVACCCGNILCHCFNKYRKNEAKRREVLSAAAAAGVSVAFGAPIGGVLFSLEEVSYYFPLKTLWRSFFAALVAAFTLRSINPFGNSRLVLFYVEFHTPWHLFELVPFIVLGIFGGLWGALFIRTNIAWCRKRKTTQLGKYPVVEVLIVTAITAILAFPNEYTRMSTSELISELFNDCGLLDSSKLCDYENHFNTSKGGELPDRPAGVGIYSAMWQLALTLILKIVITIFTFGMKIPSGLFIPSMAVGAIAGRLLGVGMEQLAYYHHDWGIFNSWCSQGADCITPGLYAMVGAAACLGGVTRMTVSLVVIMFELTGGLEYIVPLMAAAMTSKWVADALGREGIYDAHIRLNGYPFLEAKEEFAHKTLAMDVMKPRRNDPLLTVLTQDSMTVEDVETIISETTYSGFPVVVSRESQRLVGFVLRRDLIISIENARKKQDGVVSTSIIYFTEHSPPMPPYTPPTLKLRNILDLSPFTVTDLTPMEIVVDIFRKLGLRQCLVTHNGRLLGIITKKDVLKHIAQMANQDPDSILFN

Columns and labels:
[1] = target: TMEM9B (mouse (endogenous in mouse brain)) (UniProt Q9JJR8); assay: affinity purification with mass spectrometry; multi-epitope affinity purification (meAP-MS) from mouse brain membranes solubilized in ComplexioLyte 47; several antibodies against TMEM9 or TMEM9B on Protein A / Protein G magnetic beads, 3 h; IgG and target knockout controls
[2] = target: T1, TMEM9 (mouse (endogenous in mouse brain)) (UniProt Q9CR23); assay: as above
T1 sequence: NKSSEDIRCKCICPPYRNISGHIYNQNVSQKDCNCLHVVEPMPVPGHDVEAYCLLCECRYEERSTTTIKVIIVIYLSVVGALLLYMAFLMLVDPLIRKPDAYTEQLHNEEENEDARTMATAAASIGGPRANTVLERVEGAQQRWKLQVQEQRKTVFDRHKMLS

Binder	binding [1]	binding [2]
B1	binds	
B2	binds	binds
B3	binds	binds
